Measurements: publication PMC5382943
No constants are given. Whether binding was seen depends on the method and setting. Binding seen in cells or lysates may run through a third protein. Binding calls can cover weak binding; strength is not graded here. Sequences can lack the tags named with a protein.

Experiments:
[1] = molecular target: endogenous β-tubulin (human (endogenous in SHSY5Y)); assay: co-IP; whole protein extracts of doxycycline-induced SHSY5Y clones incubated with antibodies against β-tubulin or α-tubulin to precipitate the endogenous tubulin; western blot with anti-Flag
[2] = molecular target: endogenous α-tubulin (human (endogenous in SHSY5Y)); assay: as above

binding [1]: binds
binding [2]: binds
B1: Flag-tagged full-length wild-type PRUNE (protein, UniProt Q86TP1-1 1-453)
chain: MEDYLQGCRAALQESRPLHVVLGNEACDLDSTVSALALAFYLAKTTEAEEVFVPVLNIKRSELPLRGDIVFFLQKVHIPESILIFRDEIDLHALYQAGQLTLILVDHHILSKSDTALEEAVAEVLDHRPIEPKHCPPCHVSVELVGSCATLVTERILQGAPEILDRQTAALLHGTIILDCVNMDLKIGKATPKDSKYVEKLEALFPDLPKRNDIFDSLQKAKFDVSGLTTEQMLRKDQKTIYRQGVKVAISAIYMDLEAFLQRSNLLADLHAFCQAHSYDVLVAMTIFFNTHNEPVRQLAIFCPHVALQTTICEVLERSHSPPLKLTPASSTHPNLHAYLQGNTQVSRKKLLPLLQEALSAYFDSMKIPSGQPETADVSREQVDKELDRASNSLISGLSQDEEDPPLPPTPMNSLVDECPLDQGLPKLSAEAVFEKCSQISLSQSTTASLSKK
